Results on three molecules are retold here after patent publication US20200123265A1 (AGENUS, published 2020).

These are yes or no findings as the source states them, for the method shown. Some binding calls cover weakened binding; strength is not graded here.

Assay [1] concerns the target T1, biotinylated GITR (GITR-bio) (UniProt Q9Y5U5).
T1 sequence (biotinylated, looked up): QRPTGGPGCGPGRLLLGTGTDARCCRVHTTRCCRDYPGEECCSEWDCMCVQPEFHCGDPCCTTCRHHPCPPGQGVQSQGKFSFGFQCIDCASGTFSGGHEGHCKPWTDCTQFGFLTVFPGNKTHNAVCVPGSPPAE
Put plainly: flow cytometry competition: 2 µg antibody pre-incubated with GITR-bio, loss of binding to cells expressing 231-32-15. A general note: A flow cytometer gives signals particle by particle.

Assay [2] addresses T1, biotinylated GITR (GITR-bio). Put plainly: flow cytometry, antibody on 1624-5 pre-B cells, GITR-bio detected with streptavidin-PE.

B1: pab1875 (antibody, V domains shown)
VH: QVQLVQSGAEVKKPGASVKVSCKGSGYTFTDYAMYWVRQAPGQGLEWIGVIRTYSGDVTYNQKFKDRATMTVDKSISTAYMELSRLRSDDTAVYYCAKSGTVRGFAYWGQGTLVTVSS
VL: DIVMTQSPPTLSLSPGERVTLSCKSSQSLLNSGNQKNYLTWYQQKPGQAPRLLIYWASTRESGIPARFSGSGSGTDFTLTISSLQPEDFAVYHCQNDYSYPYTFGQGTKLEIK
For B1, in assay [1], the binding entry was “binds”.

B2: pab1876 (antibody, human IgG1, V domains shown)
VH: B1 VH
VL: DIVMTQSPDSLAVSLGERATINCKSSQSLLNSGNQKNYLTWYQQKPGQPPKLLIYWASTRESGVPDRFSGSGSGTDFTLTISSLQAEDVAVYHCQNDYSYPYTFGQGTKLEIKR
notes: Human IgG1 with T109S (Kabat) in the light chain constant domain
B2: the binding entry in assay [1] was “binds”.

B3: chimeric parental 231-32-15 antibody (antibody, V domains shown)
VH: QVQLLQSGTELVRPGVSVKISCKGSGYTFTDYAMYWVKQSHAKSLEWIGVIRTYSGDVTYNQKFKDKATMTVDKSSSIAYMELARLSSEDSAIYYCAKSGTVRGFAYWGQGTLVTVSS
VL: DIVMTQSPSSLTVTAGEKVIMSCKSSQSLLNSGNQKNYLTWYQQKPGQPPKLLIYWASTRESGVPDRFTGSGSGTDFTLTISSVQAEDLAVYHCQNDYSYPYTFGGGTKLEIK
notes: elsewhere it was used as soluble antibody
Turning to B3, the binding entry in assay [2] is listed as “binds”.
